Laboratory results: PubChem BioAssay AID652272 (Drosophila RNAi Screening Center, 2013)

- Purpose: 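Finding fly genes that regulate Hedgehog signal transduction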 (primary screen)
- Cell system: Drosophila clone 8 (Cl8) cells
- Reagents: long dsRNA against Drosophila genes
- Measurement: 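Firefly light from a Hedgehog-responsive ptc promoter reporter and Renilla reference light, both read on a plate reader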
- Direction: firefly Hh reporter signal: higher = more ptc reporter light; Renilla reference signal: higher = more Renilla control light
- Call rule: 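Called a hit if the two-replicate mean z-score lies below -2 or above +3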
- Meaning of the calls: active = hit: reporter lowered or raised; inactive = not a hit
The deposit covers about 21,000 reagents; shown is an unselected part of those with a known target gene and a result. Of all reagents, 503 (2.4%) got an active call. 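Raw plate light values, not normalised; calls rest on replicate z-scores that were not deposited; hits include reporter decreases as well as increases.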 Not stated in the record: the amount of reagent, the time to read-out.

gene | dsRNA | firefly Hh reporter signal, replicate 1 | firefly Hh reporter signal, replicate 2 | firefly Hh reporter signal, replicate 3 | Renilla reference signal, replicate 1 | Renilla reference signal, replicate 2 | Call
htt (huntingtin) | DRSC16970 | 84503 | 80832 | – | 2192 | 2230 | inactive
OS9 (Olfactory-specific 9) | DRSC02700 | 70668 | 47970 | – | 2082 | 4912 | inactive
wfs1 (wolfram syndrome 1) | DRSC15676 | 5.09e5 | 1.06e5 | – | 23440 | 3339 | inactive
Ugt303B3 (UDP-glycosyltransferase family 303 member B3) | DRSC14199 | 5.41e5 | 83147 | – | 30202 | 2469 | inactive
Arfrp1 (ADP-ribosylation factor related protein 1) | DRSC18417 | 55435 | 67274 | – | 1120 | 1593 | inactive
Arl1 (ADP ribosylation factor-like 1) | DRSC09667 | 1.54e5 | – | – | 2387 | 4355 | inactive
spel1 (spellchecker1) | DRSC03617 | 1.94e5 | 78065 | – | 4584 | 7202 | inactive
CG12061 | DRSC20715 | 84374 | 2.19e5 | – | 3126 | 8538 | inactive
CG4607 | DRSC18375 | 82448 | 2.09e5 | – | 2609 | 8400 | inactive
sinah (sina homologue) | DRSC09910 | 1.99e5 | – | – | 7292 | 5467 | inactive
BOD1 (Biorientation Defective 1) | DRSC15824 | 1.15e5 | 94304 | – | 1905 | 2060 | inactive
CG7896 | DRSC16335 | 95352 | 59576 | – | 2250 | 2012 | inactive
rtp (retinophilin) | DRSC12132 | 1.30e5 | 1.33e5 | – | 5333 | 5494 | inactive
Ir67a (Ionotropic receptor 67a) | DRSC09897 | 45203 | 34250 | 54391 | 3570 | 4049 | inactive
CG32111 (retired record) | DRSC09203 | 2.76e5 | – | – | 6233 | – | inactive
Dim1 | DRSC00563 | 74327 | 41312 | – | 2100 | 4545 | inactive
CG13806 | DRSC08341 | 66134 | 42960 | – | 1760 | 2243 | inactive
Cpr49Ah (Cuticular protein 49Ah) | DRSC07204 | 76805 | 59035 | – | 1611 | 3536 | inactive
CG14110 | DRSC10113 | 41144 | 54384 | 62523 | 5789 | 4288 | inactive
Rrp42 | DRSC07161 | 70052 | 56979 | – | 2133 | 4205 | inactive
alpha-Man-Ia (alpha-Mannosidase class I a) | DRSC17642 | 4.13e5 | 1.28e5 | – | 25360 | 3088 | inactive
alpha-Man-Ia (alpha-Mannosidase class I a) | DRSC18162 | 62211 | 1.55e5 | – | 1942 | 5847 | inactive
alpha-Man-Ia (alpha-Mannosidase class I a) | DRSC18163 | 68912 | 1.44e5 | – | 1776 | 4746 | inactive
alpha-Man-Ia (alpha-Mannosidase class I a) | DRSC18735 | 53976 | 1.51e5 | – | 1386 | 4603 | inactive

Reprinted from above for reference:
gene | dsRNA | firefly Hh reporter signal, replicate 1 | firefly Hh reporter signal, replicate 2 | firefly Hh reporter signal, replicate 3 | Renilla reference signal, replicate 1 | Renilla reference signal, replicate 2 | Call
OS9 (Olfactory-specific 9) | DRSC02700 | 70668 | 47970 | – | 2082 | 4912 | inactive
wfs1 (wolfram syndrome 1) | DRSC15676 | 5.09e5 | 1.06e5 | – | 23440 | 3339 | inactive
Ugt303B3 (UDP-glycosyltransferase family 303 member B3) | DRSC14199 | 5.41e5 | 83147 | – | 30202 | 2469 | inactive
